The target in assay [1] is mEGFP-iso6 (FMRP nuclear isoform iso6 fused to GFP) (human) (UniProt Q06787). Briefly: affinity purification with mass spectrometry; first screen (mild stringency): GFP-Trap magnetic agarose on whole-cell lysate of U2OS stably expressing GFP-iso6, lysate treated with turbonuclease, 2 h at 4 C; LC-MS/MS; SAINTexpress against 2 GFP-free U2OS controls, <1% FDR and fold change >1.5.

Chains of the proteins cited; added tags and fusions are not shown.
UniProt Q13200: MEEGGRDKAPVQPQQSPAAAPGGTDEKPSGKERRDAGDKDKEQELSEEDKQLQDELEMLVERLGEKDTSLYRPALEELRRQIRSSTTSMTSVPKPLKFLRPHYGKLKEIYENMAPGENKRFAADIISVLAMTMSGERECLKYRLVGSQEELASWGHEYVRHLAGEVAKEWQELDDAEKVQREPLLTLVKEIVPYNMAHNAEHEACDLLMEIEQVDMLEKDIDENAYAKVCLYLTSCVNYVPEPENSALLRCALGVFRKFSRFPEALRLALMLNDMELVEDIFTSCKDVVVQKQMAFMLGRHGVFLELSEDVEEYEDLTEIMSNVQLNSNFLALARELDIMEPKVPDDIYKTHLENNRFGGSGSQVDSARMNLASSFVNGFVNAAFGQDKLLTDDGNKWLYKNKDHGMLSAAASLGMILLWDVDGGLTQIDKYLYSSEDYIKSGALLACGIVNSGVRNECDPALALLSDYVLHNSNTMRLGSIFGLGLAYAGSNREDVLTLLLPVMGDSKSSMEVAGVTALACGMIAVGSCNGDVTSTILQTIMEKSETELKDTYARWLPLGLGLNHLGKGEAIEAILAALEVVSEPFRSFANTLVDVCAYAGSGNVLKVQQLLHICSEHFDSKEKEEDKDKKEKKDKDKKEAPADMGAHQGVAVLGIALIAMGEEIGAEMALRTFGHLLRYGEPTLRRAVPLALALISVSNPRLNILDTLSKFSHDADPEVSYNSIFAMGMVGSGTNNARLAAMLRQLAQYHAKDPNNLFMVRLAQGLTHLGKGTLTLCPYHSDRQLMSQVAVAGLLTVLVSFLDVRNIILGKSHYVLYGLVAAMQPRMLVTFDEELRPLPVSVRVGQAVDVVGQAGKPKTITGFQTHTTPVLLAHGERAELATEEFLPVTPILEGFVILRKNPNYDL
UniProt Q15008: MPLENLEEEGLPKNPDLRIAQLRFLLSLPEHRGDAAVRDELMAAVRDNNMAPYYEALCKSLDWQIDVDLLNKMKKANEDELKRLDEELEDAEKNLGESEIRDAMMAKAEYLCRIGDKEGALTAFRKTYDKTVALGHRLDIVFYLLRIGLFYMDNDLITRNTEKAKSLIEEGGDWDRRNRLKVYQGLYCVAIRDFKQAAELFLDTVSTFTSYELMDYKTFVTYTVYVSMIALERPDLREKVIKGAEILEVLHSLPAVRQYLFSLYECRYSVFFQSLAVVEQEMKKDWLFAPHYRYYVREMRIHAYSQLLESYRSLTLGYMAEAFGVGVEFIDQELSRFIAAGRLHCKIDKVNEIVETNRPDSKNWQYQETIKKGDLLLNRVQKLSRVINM

The target is the same in assay [2]. Briefly: affinity purification with mass spectrometry; stringent conditions: GFP-Trap on whole-cell lysate of U2OS stably expressing GFP-iso6 or GFP-iso1, half the number of cells of the first screen, 6 GFP-free U2OS controls, <=1% FDR; cells mock-treated or treated with aphidicolin (APH) for 24 h.

Results are given in words; binding and its absence hold for the method and conditions named. Binding seen in cells or lysates may run through a third protein. These calls come from enrichment with a bait or labelling near it, and not all partners need be listed.

The values below come from paper PMC10742089.

As to AURKB (from UniProt Q96GD4 1-344), the binding entry in assay [1] and in assay [2] was “binds” in each case.
PSMD2 (from UniProt Q13200 1-908): the binding entry in assay [1] and in assay [2] was “binds” in each case.
As to PSMD6 (from UniProt Q15008 1-389), the binding result in assay [1] and in assay [2] was “binds” in each case.

B1: WDR3 (protein, UniProt Q9UNX4 1-943)
chain: MGLTKQYLRYVASAVFGVIGSQKGNIVFVTLRGEKGRYVAVPACEHVFIWDLRKGEKILILQGLKQEVTCLCPSPDGLHLAVGYEDGSIRIFSLLSGEGNVTFNGHKAAITTLKYDQLGGRLASGSKDTDIIVWDVINESGLYRLKGHKDAITQALFLREKNLLVTSGKDTMVKWWDLDTQHCFKTMVGHRTEVWGLVLLSEEKRLITGASDSELRVWDIAYLQEIEDPEEPDPKKIKGSSPGIQDTLEAEDGAFETDEAPEDRILSCRKAGSIMREGRDRVVNLAVDKTGRILACHGTDSVLELFCILSKKEIQKKMDKKMKKARKKAKLHSSKGEEEDPEVNVEMSLQDEIQRVTNIKTSAKIKSFDLIHSPHGELKAVFLLQNNLVELYSLNPSLPTPQPVRTSRITIGGHRSDVRTLSFSSDNIAVLSAAADSIKIWNRSTLQCIRTMTCEYALCSFFVPGDRQVVIGTKTGKLQLYDLASGNLLETIDAHDGALWSMSLSPDQRGFVTGGADKSVKFWDFELVKDENSTQKRLSVKQTRTLQLDEDVLCVSYSPNQKLLAVSLLDCTVKIFYVDTLKFFLSLYGHKLPVICMDISHDGALIATGSADRNVKIWGLDFGDCHKSLFAHDDSVMYLQFVPKSHLFFTAGKDHKIKQWDADKFEHIQTLEGHHQEIWCLAVSPSGDYVVSSSHDKSLRLWERTREPLILEEEREMEREAEYEESVAKEDQPAVPGETQGDSYFTGKKTIETVKAAERIMEAIELYREETAKMKEHKAICKAAGKEVPLPSNPILMAYGSISPSAYVLEIFKGIKSSELEESLLVLPFSYVPDILKLFNEFIQLGSDVELICRCLFFLLRIHFGQITSNQMLVPVIEKLRETTISKVSQVRDVIGFNMAGLDYLKRECEAKSEVMFFADATSHLEEKKRKRKKREKLILTLT
Consider B1, for which the binding entry in assay [1] and in assay [2] was “binds” each time.

B2: CPSF1 (protein, UniProt Q10570 1-1443)
chain: MYAVYKQAHPPTGLEFSMYCNFFNNSERNLVVAGTSQLYVYRLNRDAEALTKNDRSTEGKAHREKLELAASFSFFGNVMSMASVQLAGAKRDALLLSFKDAKLSVVEYDPGTHDLKTLSLHYFEEPELRDGFVQNVHTPRVRVDPDGRCAAMLVYGTRLVVLPFRRESLAEEHEGLVGEGQRSSFLPSYIIDVRALDEKLLNIIDLQFLHGYYEPTLLILFEPNQTWPGRVAVRQDTCSIVAISLNITQKVHPVIWSLTSLPFDCTQALAVPKPIGGVVVFAVNSLLYLNQSVPPYGVALNSLTTGTTAFPLRTQEGVRITLDCAQATFISYDKMVISLKGGEIYVLTLITDGMRSVRAFHFDKAAASVLTTSMVTMEPGYLFLGSRLGNSLLLKYTEKLQEPPASAVREAADKEEPPSKKKRVDATAGWSAAGKSVPQDEVDEIEVYGSEAQSGTQLATYSFEVCDSILNIGPCANAAVGEPAFLSEEFQNSPEPDLEIVVCSGHGKNGALSVLQKSIRPQVVTTFELPGCYDMWTVIAPVRKEEEDNPKGEGTEQEPSTTPEADDDGRRHGFLILSREDSTMILQTGQEIMELDTSGFATQGPTVFAGNIGDNRYIVQVSPLGIRLLEGVNQLHFIPVDLGAPIVQCAVADPYVVIMSAEGHVTMFLLKSDSYGGRHHRLALHKPPLHHQSKVITLCLYRDLSGMFTTESRLGGARDELGGRSGPEAEGLGSETSPTVDDEEEMLYGDSGSLFSPSKEEARRSSQPPADRDPAPFRAEPTHWCLLVRENGTMEIYQLPDWRLVFLVKNFPVGQRVLVDSSFGQPTTQGEARREEATRQGELPLVKEVLLVALGSRQSRPYLLVHVDQELLIYEAFPHDSQLGQGNLKVRFKKVPHNINFREKKPKPSKKKAEGGGAEEGAGARGRVARFRYFEDIYGYSGVFICGPSPHWLLVTGRGALRLHPMAIDGPVDSFAPFHNVNCPRGFLYFNRQGELRISVLPAYLSYDAPWPVRKIPLRCTAHYVAYHVESKVYAVATSTNTPCARIPRMTGEEKEFETIERDERYIHPQQEAFSIQLISPVSWEAIPNARIELQEWEHVTCMKTVSLRSEETVSGLKGYVAAGTCLMQGEEVTCRGRILIMDVIEVVPEPGQPLTKNKFKVLYEKEQKGPVTALCHCNGHLVSAIGQKIFLWSLRASELTGMAFIDTQLYIHQMISVKNFILAADVMKSISLLRYQEESKTLSLVSRDAKPLEVYSVDFMVDNAQLGFLVSDRDRNLMVYMYLPEAKESFGGMRLLRRADFHVGAHVNTFWRTPCRGATEGLSKKSVVWENKHITWFATLDGGIGLLLPMQEKTYRRLLMLQNALTTMLPHHAGLNPRAFRMLHVDRRTLQNAVRNVLDGELLNRYLYLSTMERSELAKKIGTTPDIILDDLLETDRVTAHF
B2: the binding entry in assay [1] and in assay [2] was “binds” in each case.

B3: TRMT1L (protein, UniProt Q7Z2T5 1-733)
chain: MENMAEEELLPLEKEEVEVAQVQVPTPARDSAGVPAPAPDSALDSAPTPASAPAPAPALAQAPALSPSLASAPEEAKSKRHISIQRQLADLENLAFVTDGNFDSASSLNSDNLDAGNRQACPLCPKEKFRACNSHKLRRHLQNLHWKVSVEFEGYRMCICHLPCRPVKPNIIGEQITSKMGAHYHCIICSATITRRTDMLGHVRRHMNKGETKSSYIAASTAKPPKEILKEADTDVQVCPNYSIPQKTDSYFNPKMKLNRQLIFCTLAALAEERKPLECLDAFGATGIMGLQWAKHLGNAVKVTINDLNENSVTLIQENCHLNKLKVVVDSKEKEKSDDILEEGEKNLGNIKVTKMDANVLMHLRSFDFIHLDPFGTSVNYLDSAFRNIRNLGIVSVTSTDISSLYAKAQHVARRHYGCNIVRTEYYKELAARIVVAAVARAAARCNKGIEVLFAVALEHFVLVVVRVLRGPTSADETAKKIQYLIHCQWCEERIFQKDGNMVEENPYRQLPCNCHGSMPGKTAIELGPLWSSSLFNTGFLKRMLFESLHHGLDDIQTLIKTLIFESECTPQSQFSIHASSNVNKQEENGVFIKTTDDTTTDNYIAQGKRKSNEMITNLGKKQKTDVSTEHPPFYYNIHRHSIKGMNMPKLKKFLCYLSQAGFRVSRTHFDPMGVRTDAPLMQFKSILLKYSTPTYTGGQSESHVQSASEDTVTERVEMSVNDKAEASGCRRW
In the case of B3, the binding result in assay [1] and in assay [2] was “binds” in each case.
